No constants are given. Whether binding was seen depends on the method and setting. In cells and extracts the contact can be indirect. Some results given as binding are weak or reduced against the parent protein; the word gives no strength. Blank lines part the entries; values can stand above or below the molecule they belong to.
Legend:
[1] = target: ERBB2 receptor (human (endogenous in SK-BR-3)) (UniProt P04626); assay: co-IP; as a1 but 20 min of Tz treatment of live starved SK-BR-3 cells; Tz bound to ERBB2 precipitated with Protein A-Sepharose CL-4B; N-WASP and ERBB2 detected by western blot
[2] = target: ERBB2 receptor (human (endogenous in SK-BR-3)) (UniProt P04626); assay: co-IP; Tz (10 ug/ml, serum-free medium) given to live starved SK-BR-3 cells for 2 min, with or without 10 uM U0126; Tz bound to ERBB2 precipitated from the lysate with Protein A-Sepharose CL-4B; N-WASP and ERBB2 detected by western blot
[3] = target: ERBB2 receptor (human (endogenous in SK-BR-3)) (UniProt P04626); assay: co-IP; ERBB2 immunoprecipitated with Tz and Protein A-Sepharose from SK-BR-3 wild type cells and SK-BR-3 cells silenced for ERBB1 (siRNA #1); ERBB2 and p140Cap detected by immunoblot; time of Tz treatment not told

Protein sequences, listed by entry. Tags and fused reporters are not part of them.
UniProt O00401: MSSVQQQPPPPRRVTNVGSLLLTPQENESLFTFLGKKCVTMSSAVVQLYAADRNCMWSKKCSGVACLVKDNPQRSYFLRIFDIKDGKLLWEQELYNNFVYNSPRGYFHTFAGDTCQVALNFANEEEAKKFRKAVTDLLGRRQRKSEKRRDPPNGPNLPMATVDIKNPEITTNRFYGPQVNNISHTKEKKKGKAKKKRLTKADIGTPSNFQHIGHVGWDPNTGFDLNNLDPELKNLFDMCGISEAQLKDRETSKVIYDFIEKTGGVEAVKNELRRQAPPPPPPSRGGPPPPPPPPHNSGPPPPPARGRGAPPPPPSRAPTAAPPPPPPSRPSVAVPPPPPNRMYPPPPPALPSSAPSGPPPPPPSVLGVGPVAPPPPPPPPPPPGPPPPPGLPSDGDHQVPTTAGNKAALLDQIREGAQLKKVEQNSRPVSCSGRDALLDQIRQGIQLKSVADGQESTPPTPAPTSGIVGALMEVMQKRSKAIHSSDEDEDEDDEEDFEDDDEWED

binding [2]: binds
Molecule: N-WASP (from UniProt O00401 1-505)
binding [1]: no binding (condition: after 20 min of Tz treatment)

binding [3]: binds
B1: p140Cap (protein, UniProt Q9C0H9 1-1183)
chain: MGNAPSQDPERSSPPMLSADDAEYPREYRTLGGGGGGGSGGRRFSNVGLVHTSERRHTVIAAQSLEALSGLQKADADRKRDAFMDHLKSKYPQHALALRGQQDRMREQPNYWSFKTRSSRHTQGAQPGLADQAAKLSYASAESLETMSEAELPLGFSRMNRFRQSLPLSRSASQTKLRSPGVLFLQFGEETRRVHITHEVSSLDTLHALIAHMFPQKLTMGMLKSPNTAILIKDEARNVFYELEDVRDIQDRSIIKIYRKEPLYAAFPGSHLTNGDLRREMVYASRESSPTRRLNNLSPAPHLASGSPPPGLPSGLPSGLQSGSPSRSRLSYAGGRPPSYAGSPVHHAAERLGGAPAAQGVSPSPSAILERRDVKPDEDLASKAGGMVLVKGEGLYADPYGLLHEGRLSLAAAAGDPFAYPGAGGLYKRGSVRSLSTYSAAALQSDLEDSLYKAAGGGGPLYGDGYGFRLPPSSPQKLADVAAPPGGPPPPHSPYSGPPSRGSPVRQSFRKDSGSSSVFAESPGGKTRSAGSASTAGAPPSELFPGPGERSLVGFGPPVPAKDTETRERMEAMEKQIASLTGLVQSALLRGSEPETPSEKIEGSNGAATPSAPCGSGGRSSGATPVSGPPPPSASSTPAGQPTAVSRLQMQLHLRGLQNSASDLRGQLQQLRKLQLQNQESVRALLKRTEAELSMRVSEAARRQEDPLQRQRTLVEEERLRYLNDEELITQQLNDLEKSVEKIQRDVSHNHRLVPGPELEEKALVLKQLGETLTELKAHFPGLQSKMRVVLRVEVEAVKFLKEEPQRLDGLLKRCRGVTDTLAQIRRQVDEGVWPPPNNLLSQSPKKVTAETDFNKSVDFEMPPPSPPLNLHELSGPAEGASLTPKGGNPTKGLDTPGKRSVDKAVSVEAAERDWEEKRAALTQYSAKDINRLLEETQAELLKAIPDLDCASKAHPGPAPTPDHKPPKAPHGQKAAPRTEPSGRRGSDELTVPRYRTEKPSKSPPPPPPRRSFPSSHGLTTTRTGEVVVTSKKDSAFIKKAESEELEVQKPQVKLRRAVSEVARPASTPPIMASAIKDEDDEDRIIAELESGGGSVPPMKVVTPGASRLKAAQGQAGSPDKSKHGKQRAEYMRIQAQQQATKPSKEMSGSNETSSPVSEKPSASRTSIPVLTSFGARNSSISF
